This is an account of results in patent publication US20180289843A1, “COATING FOR METAL NANOPARTICLES” (AGENCY FOR SCIENCE, TECHNOLOGY AND RESEARCH, priority 2015, published 2018).

[ ]: non-standard residue; d: D form. pS = N[C@@H](COP(=O)(O)O)C(=O)O; Thr(ol) = C[C@@H](O)[C@H](N)CO

One series can be described thus: Yield of preparation of ligand coated iron oxide nanoparticles after ligand exchange and G25 purification. The series is classed as physicochemical. The conditions noted are these: single ligand shell, prepared using PBS and Tween 20, after G25 purification.
H-[pS]VVV[Thr(ol)] [Peptide S13]: the “Yield (%)” value was 17%.

As to “PO3H2-O-CH2-CO-Ser(PO3H2)-NH-PEG4-OH [Peptide S7]”, the “Yield (%)” value is given as 63%.

Staying with this series, now noted: single ligand shell, prepared using water only, after G25 size-exclusion purification.
As to `O=P(O)(O)SCCCCCCCCCCCOCCOCCOCCO` [Ligand L1, (HO)2-PO-S-C11-EG3-OH], the “Yield (%)” value turned out to be 32%.

With `O=P(O)(O)SCCCCCCCCCCCOCCOCCOCCOCCOCCOCCO` [Ligand L2, (HO)2-PO-S-C11-EG6-OH], the “Yield (%)” value stood at 44%.

As to `O=P(O)(O)SCCCCCCCCCCCCCCCCO` [Ligand L3, (HO)2-PO-S-(CH2)16-OH], the “Yield (%)” value was determined as 0%.

Consider `NC(COP(=O)(O)O)C(=O)NCCOCCOCCOCCO` (centres unmarked) [Peptide S1, H-Ser(PO3H2)-NH-PEG4-ol], for which the “Yield (%)” value worked out at 2%.

Regarding `O=C(CNC(=O)COP(=O)(O)O)NCCOCCOCCOCCO` [Peptide S6, PO3H2-O-CH2-CO-Gly-NH-PEG4-ol], the “Yield (%)” value was determined as 0%.

Regarding “H-Ser(PO3H2)-Ser-Ser-Ser-Ser-ol [Peptide S9]”, the “Yield (%)” value stood at 8%.

As for H-[pS]FFF[Thr(ol)] [Peptide S11], the “Yield (%)” value is listed as 0%.

Consider H-[pS]VVV[Thr(ol)] [Peptide S13], for which the “Yield (%)” value stood at 80%.

For the molecule “PO3H2-O-CH2-CO-Gly-NH-PEG4-OH [Peptide S5]”, the “Yield (%)” value was 49%.

As for PO3H2-O-CH2-CO-NH-PEG-ol [Peptide S3], the “Yield (%)” value came out at 0%.

In the case of “PO3H2-O-CH2-CO-Ser(PO3H2)-NH-PEG4-OH [Peptide S7]”, the “Yield (%)” value worked out at 80%.

As to “PO3H2-O-CH2-CO-Ser(PO3H2)-NH-PEG4-ol [Peptide S8]”, the “Yield (%)” value worked out at 91%.
